Some of the results follow.
Compound: CN1CCC(CNc2ccc3ncc(-c4cccc(OC(F)(F)F)c4)n3n2)CC1
Test: log2 fold change, soluble protein after heating vs DMSO (PISA); higher = thermal stabilisation; K562 cells, 10 uM, 30 min; active = over 0.2 and 3.5 SD of the protein, either way, in both replicates (recomputed)
In short: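 Soluble protein was defined as the supernatant after 21,000xg for 90 min. It came from K562 cells at 2×10^6 cells/mL given 10 μM compound for 30 min, heated in aliquots for 3 min across 48°C-58°C, pooled, and extracted in PBS with 0.5% NP-40 at 4°C, and was quantified by TMTpro 16plex LC-MS/MS with equalised channel sums. Thermal stability against control samples, from duplicates, is reported as log2 fold change.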

Protein sequences, listed by entry. Tags and fused reporters are not part of them. Lines headed by an entry give the natural chain unless they say otherwise; changes in a name come on top.
UniProt Q2M296: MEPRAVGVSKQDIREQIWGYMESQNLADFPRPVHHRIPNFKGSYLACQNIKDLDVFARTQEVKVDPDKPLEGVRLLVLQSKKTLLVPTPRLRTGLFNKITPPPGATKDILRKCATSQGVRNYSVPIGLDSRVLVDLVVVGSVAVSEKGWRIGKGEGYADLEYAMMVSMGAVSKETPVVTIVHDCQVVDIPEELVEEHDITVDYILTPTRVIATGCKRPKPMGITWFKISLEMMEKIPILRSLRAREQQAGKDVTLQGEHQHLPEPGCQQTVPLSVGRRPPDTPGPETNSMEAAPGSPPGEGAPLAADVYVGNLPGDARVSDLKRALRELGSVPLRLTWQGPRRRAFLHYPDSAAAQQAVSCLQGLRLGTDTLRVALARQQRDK
UniProt B2RTY4: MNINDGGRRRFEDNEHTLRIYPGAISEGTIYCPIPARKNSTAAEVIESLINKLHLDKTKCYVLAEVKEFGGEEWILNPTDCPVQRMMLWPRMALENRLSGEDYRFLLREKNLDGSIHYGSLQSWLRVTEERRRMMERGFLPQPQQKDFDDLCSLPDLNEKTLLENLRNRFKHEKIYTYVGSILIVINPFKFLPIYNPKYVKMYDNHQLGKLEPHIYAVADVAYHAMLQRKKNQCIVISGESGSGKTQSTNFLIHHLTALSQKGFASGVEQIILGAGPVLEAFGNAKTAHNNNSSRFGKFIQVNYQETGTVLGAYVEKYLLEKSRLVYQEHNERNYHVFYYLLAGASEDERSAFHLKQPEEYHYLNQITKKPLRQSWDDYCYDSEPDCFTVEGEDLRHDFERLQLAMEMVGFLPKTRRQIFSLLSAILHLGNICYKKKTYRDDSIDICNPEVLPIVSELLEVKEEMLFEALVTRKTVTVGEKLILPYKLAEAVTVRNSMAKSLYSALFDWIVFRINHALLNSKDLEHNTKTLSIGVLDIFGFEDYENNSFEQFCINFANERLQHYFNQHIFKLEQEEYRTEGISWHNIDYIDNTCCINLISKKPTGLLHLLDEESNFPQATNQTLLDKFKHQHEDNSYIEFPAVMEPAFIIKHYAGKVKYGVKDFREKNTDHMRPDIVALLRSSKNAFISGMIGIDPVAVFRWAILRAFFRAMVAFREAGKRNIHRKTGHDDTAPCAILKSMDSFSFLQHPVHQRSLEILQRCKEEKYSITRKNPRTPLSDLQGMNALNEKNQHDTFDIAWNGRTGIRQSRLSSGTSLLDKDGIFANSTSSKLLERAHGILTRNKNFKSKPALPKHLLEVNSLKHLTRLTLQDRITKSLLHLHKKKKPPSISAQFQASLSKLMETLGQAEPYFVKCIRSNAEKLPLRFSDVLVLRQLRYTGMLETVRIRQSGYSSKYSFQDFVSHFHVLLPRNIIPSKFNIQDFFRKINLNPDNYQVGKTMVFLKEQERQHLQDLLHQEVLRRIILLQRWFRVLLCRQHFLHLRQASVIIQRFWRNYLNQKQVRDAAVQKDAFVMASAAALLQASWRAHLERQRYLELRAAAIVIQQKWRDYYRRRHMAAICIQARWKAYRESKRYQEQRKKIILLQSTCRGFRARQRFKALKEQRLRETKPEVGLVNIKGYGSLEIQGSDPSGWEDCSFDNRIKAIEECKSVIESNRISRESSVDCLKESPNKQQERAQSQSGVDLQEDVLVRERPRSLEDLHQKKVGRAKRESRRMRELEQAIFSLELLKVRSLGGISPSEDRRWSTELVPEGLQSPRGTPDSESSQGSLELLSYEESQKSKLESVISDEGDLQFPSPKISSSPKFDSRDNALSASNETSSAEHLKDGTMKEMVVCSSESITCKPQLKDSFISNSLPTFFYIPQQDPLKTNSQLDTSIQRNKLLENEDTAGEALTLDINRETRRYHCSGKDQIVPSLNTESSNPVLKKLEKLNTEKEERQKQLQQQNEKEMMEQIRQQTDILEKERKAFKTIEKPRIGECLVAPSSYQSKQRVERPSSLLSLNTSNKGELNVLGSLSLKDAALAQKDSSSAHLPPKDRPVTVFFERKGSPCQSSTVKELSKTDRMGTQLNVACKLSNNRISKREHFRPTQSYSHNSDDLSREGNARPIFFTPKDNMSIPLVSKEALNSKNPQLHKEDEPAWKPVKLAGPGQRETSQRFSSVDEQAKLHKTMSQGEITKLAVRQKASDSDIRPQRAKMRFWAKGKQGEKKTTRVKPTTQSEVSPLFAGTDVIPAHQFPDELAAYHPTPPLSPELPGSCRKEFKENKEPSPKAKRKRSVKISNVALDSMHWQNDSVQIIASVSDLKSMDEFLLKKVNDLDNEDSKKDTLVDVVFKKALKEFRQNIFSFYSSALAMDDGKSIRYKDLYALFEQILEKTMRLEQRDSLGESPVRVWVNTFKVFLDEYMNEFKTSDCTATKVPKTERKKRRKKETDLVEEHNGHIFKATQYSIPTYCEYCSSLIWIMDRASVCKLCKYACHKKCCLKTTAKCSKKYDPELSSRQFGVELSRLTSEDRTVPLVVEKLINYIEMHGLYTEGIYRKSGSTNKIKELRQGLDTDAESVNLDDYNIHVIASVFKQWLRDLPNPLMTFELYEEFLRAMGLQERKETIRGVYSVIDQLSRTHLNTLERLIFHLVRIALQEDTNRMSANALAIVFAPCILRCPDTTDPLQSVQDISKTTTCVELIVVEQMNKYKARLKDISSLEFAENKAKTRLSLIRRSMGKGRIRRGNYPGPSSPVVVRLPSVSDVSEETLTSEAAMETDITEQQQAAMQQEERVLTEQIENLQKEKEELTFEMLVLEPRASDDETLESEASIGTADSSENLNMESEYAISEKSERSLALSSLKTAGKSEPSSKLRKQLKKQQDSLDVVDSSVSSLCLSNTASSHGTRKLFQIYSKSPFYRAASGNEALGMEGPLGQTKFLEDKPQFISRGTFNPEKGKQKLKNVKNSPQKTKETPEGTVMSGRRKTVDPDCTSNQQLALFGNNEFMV
UniProt Q9H6N6: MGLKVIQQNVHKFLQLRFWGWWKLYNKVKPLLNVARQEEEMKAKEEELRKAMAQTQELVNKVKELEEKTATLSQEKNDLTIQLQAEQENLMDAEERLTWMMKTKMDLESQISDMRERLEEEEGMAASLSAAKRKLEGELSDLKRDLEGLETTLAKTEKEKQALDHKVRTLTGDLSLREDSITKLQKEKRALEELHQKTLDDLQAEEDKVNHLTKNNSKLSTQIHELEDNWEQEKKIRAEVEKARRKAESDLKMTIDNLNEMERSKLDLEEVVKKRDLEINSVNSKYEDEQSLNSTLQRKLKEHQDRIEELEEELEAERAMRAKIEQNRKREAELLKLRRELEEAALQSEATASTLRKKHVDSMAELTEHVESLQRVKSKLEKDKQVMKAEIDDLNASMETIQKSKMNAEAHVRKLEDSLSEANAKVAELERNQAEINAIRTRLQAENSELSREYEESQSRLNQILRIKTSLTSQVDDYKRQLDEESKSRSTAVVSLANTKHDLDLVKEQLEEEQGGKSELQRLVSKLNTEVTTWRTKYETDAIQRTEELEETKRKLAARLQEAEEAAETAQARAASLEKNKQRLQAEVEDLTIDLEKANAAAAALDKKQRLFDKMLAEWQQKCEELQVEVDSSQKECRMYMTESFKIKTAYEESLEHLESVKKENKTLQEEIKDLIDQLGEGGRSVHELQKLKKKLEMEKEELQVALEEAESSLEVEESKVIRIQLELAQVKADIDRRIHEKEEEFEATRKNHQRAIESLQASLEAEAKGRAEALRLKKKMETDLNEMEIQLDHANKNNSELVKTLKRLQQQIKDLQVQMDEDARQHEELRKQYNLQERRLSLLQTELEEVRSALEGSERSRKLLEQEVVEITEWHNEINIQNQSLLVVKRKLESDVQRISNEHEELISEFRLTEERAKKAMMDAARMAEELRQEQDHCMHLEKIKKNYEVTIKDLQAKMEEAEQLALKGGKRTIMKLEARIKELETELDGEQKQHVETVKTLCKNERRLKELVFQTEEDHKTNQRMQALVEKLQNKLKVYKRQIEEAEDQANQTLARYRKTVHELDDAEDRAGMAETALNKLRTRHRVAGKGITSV
UniProt Q96E29: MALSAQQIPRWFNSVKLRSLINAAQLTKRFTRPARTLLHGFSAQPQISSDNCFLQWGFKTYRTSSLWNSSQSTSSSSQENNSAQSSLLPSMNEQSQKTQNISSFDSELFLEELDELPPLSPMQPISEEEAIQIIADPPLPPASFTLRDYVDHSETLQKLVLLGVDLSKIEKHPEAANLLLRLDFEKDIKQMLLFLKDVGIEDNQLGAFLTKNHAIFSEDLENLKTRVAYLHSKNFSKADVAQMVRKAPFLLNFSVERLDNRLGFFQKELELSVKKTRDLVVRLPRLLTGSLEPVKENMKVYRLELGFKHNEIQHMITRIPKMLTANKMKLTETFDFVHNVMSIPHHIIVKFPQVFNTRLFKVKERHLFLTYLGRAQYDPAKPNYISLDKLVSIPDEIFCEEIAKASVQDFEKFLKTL
MTHFD1, A0A384N5Y3, UniProt A0A384N5Y3, whole entry, looked up: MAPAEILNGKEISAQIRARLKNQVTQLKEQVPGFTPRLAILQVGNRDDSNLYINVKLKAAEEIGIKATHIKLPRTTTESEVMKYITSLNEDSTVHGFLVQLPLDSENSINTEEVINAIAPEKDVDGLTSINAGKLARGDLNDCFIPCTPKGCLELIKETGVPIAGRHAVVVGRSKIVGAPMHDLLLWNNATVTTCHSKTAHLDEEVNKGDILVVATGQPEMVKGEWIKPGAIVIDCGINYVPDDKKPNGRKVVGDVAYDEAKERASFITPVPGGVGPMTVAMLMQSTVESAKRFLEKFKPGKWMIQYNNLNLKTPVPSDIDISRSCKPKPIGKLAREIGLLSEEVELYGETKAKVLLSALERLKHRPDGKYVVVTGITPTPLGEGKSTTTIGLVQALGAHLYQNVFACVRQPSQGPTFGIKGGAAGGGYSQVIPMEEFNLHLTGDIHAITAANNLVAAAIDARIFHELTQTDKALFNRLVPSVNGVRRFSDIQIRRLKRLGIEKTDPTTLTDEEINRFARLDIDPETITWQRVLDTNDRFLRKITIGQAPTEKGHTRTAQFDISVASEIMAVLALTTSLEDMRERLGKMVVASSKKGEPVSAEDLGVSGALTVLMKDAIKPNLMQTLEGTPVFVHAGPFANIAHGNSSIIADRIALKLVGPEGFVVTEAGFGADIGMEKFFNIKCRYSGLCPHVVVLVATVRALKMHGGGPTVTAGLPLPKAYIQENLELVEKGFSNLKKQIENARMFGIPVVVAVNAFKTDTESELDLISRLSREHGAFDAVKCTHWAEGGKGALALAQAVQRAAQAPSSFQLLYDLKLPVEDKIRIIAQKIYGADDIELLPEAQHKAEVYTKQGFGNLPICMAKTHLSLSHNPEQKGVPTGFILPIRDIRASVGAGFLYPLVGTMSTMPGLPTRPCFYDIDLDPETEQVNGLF
UniProt Q99836, whole entry, looked up: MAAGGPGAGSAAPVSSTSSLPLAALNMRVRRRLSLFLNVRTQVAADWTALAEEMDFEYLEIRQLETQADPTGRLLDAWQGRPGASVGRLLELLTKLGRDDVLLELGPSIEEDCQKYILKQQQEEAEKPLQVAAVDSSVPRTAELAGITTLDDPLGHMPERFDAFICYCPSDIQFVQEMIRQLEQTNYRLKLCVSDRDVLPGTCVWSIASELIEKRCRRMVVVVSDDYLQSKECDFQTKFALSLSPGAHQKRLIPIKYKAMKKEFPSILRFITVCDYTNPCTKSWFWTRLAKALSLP
UniProt P13640: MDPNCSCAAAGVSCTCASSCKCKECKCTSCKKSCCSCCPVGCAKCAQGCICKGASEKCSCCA
UniProt Q9Y2Z2: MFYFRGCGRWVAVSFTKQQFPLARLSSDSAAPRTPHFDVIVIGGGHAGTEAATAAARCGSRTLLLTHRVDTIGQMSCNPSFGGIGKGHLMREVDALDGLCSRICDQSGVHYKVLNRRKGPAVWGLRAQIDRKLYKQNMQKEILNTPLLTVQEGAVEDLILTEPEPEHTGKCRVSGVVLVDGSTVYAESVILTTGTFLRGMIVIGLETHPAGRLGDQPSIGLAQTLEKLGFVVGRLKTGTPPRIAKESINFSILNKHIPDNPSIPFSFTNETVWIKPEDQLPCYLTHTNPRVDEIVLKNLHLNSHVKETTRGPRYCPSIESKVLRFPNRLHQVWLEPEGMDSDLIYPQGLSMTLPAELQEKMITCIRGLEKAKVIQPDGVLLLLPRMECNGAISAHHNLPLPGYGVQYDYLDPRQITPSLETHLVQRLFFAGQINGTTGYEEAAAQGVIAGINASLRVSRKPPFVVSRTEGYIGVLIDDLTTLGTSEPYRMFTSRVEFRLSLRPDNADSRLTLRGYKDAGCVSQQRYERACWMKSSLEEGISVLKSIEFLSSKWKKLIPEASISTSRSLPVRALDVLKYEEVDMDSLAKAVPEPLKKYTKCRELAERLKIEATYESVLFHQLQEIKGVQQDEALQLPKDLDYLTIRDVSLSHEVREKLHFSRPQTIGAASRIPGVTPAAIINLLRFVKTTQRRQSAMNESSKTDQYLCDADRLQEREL

Target | log2 fold change
MTHFSD isoform 3 (UniProt Q2M296) | inactive: 0.253
MRPS15 (UniProt P82914) | inactive: 0.042
MYO9A isoform 4 (UniProt B2RTY4) | inactive: 0.115
MYH16 (UniProt Q9H6N6) | inactive: 0.26
MTERF3 (UniProt Q96E29) | inactive: -0.029
MRPS14 (UniProt O60783) | inactive: -0.071
MTHFD1, A0A384N5Y3 | inactive: -0.081
MTHFD1 (UniProt P11586) | inactive: 0.004
MYLK (UniProt Q15746) | inactive: -0.005
MRPS18C (UniProt Q9Y3D5) | inactive: -0.181
MTA3 (UniProt Q9BTC8) | inactive: -0.047
MTMR14 (UniProt Q8NCE2) | inactive: -0.039
MYD88 isoform 6 (UniProt Q99836) | inactive: -0.114
MT1G (UniProt P13640) | inactive: -0.083
MTFR1L (UniProt Q9H019) | inactive: -0.296
MRPS16 (UniProt Q9Y3D3) | inactive: 0.052
MTMR1 (UniProt Q13613) | inactive: -0.126
MRPS26 (UniProt Q9BYN8) | inactive: -0.092
MTO1 isoform 6 (UniProt Q9Y2Z2) | inactive: 0.013

Two neighbouring records out of the list so far, for reference:
Target | log2 fold change
MTHFD1, A0A384N5Y3 | inactive: -0.081
MTHFD1 (UniProt P11586) | inactive: 0.004

Source: the supplement of paper PMC10849652
